# Results published in article PMC6943441 (Molecules, 2019).
# Experiment: general procedure: Fmoc solid-phase peptide synthesis; Fmoc-Leu-Wang resin; N,N'-diisopropylcarbodiimide / Oxyma
# Details: whole synthesis; for final HPLC purity: UV area % from UPLC (Waters Acquity, PDA 200-400 nm, HSS T3 C18)
substance,measurement,value
H-YGG[2Pal]L-OH (N-terminus and C-terminus assumed; SMILES CC(C)C[C@H](NC(=O)[C@H](Cc1ccccn1)NC(=O)CNC(=O)CNC(=O)[C@@H](N)Cc1ccc(O)cc1)C(=O)O),isolated mass,12.1 mg
same,isolated yield,10.8%
same,final HPLC purity,≥95%
H-YGG[3Pal]L-OH (N-terminus and C-terminus assumed; SMILES CC(C)C[C@H](NC(=O)[C@H](Cc1cccnc1)NC(=O)CNC(=O)CNC(=O)[C@@H](N)Cc1ccc(O)cc1)C(=O)O),isolated mass,70.0 mg
same,isolated yield,62.9%
same,final HPLC purity,≥95%
H-YGG[4Pal]L-OH (N-terminus and C-terminus assumed; SMILES CC(C)C[C@H](NC(=O)[C@H](Cc1ccncc1)NC(=O)CNC(=O)CNC(=O)[C@@H](N)Cc1ccc(O)cc1)C(=O)O),isolated mass,36.1 mg
same,isolated yield,32.4%
same,final HPLC purity,≥95%
PEPTIDE1{Y.G.G.[mFh1fa75b].L}$$$$V2.0,isolated mass,60.2 mg
same,isolated yield,50.9%
same,final HPLC purity,≥95%
PEPTIDE1{Y.G.G.[mFh2adb45].L}$$$$V2.0,isolated mass,80.3 mg
same,isolated yield,66.7%
same,final HPLC purity,≥95%
PEPTIDE1{Y.G.G.[mFh5d7437].L}$$$$V2.0,isolated mass,60.0 mg
same,isolated yield,52.6%
same,final HPLC purity,≥95%
PEPTIDE1{Y.G.G.[mFh34c308].L}$$$$V2.0,isolated mass,60.5 mg
same,isolated yield,47.6%
same,final HPLC purity,≥95%
PEPTIDE1{Y.G.G.[mFh78ff5e].L}$$$$V2.0,isolated mass,26.0 mg
same,isolated yield,22.3%
same,final HPLC purity,≥95%
PEPTIDE1{Y.G.G.[mFh83ed55].L}$$$$V2.0,isolated mass,75.0 mg
same,isolated yield,55.2%
same,final HPLC purity,≥95%
PEPTIDE1{Y.G.G.[mFhc39cab].L}$$$$V2.0,isolated mass,90.2 mg
same,isolated yield,78.9%
same,final HPLC purity,≥95%
PEPTIDE1{Y.G.G.[mFhc275c1].L}$$$$V2.0,isolated mass,50.0 mg
same,isolated yield,43.1%
same,final HPLC purity,≥95%
PEPTIDE1{Y.G.G.[mFhefdbcf].L}$$$$V2.0,isolated mass,40.1 mg
same,isolated yield,32.1%
same,final HPLC purity,≥95%

# One purity is given for all peptides; the source may state it once. Strings that start with PEPTIDE1 are HELM notation: dots part the residues, brackets hold end groups and non-standard residues. Square brackets hold non-standard residues; d marks the D form. 2Pal = N[C@@H](Cc1ccccn1)C(=O)O; 3Pal = N[C@@H](Cc1cccnc1)C(=O)O; 4Pal = N[C@@H](Cc1ccncc1)C(=O)O
